Measured values taken from the supplement of paper PMC8728848.
This is one part of the list.

Columns and labels:
Assay in all cases: glycan array binding signal (z-score within array); higher = stronger binding
Details in all cases: glycan notation: IUPAC condensed, linker removed
[1] = target: GlcNAc(b1-3)Gal(b1-4)GlcNAc(b1-3)Gal(b1-4)GlcNAc(b1-3)Gal(b1-4)GlcNAc(b1-2)[GlcNAc(b1-3)Gal(b1-4)GlcNAc(b1-3)Gal(b1-4)GlcNAc(b1-3)Gal(b1-4)GlcNAc(b1-6)]Man(a1-6)[GlcNAc(b1-3)Gal(b1-4)GlcNAc(b1-3)Gal(b1-4)GlcNAc(b1-3)Gal(b1-4)GlcNAc(b1-2)Man(a1-3)]Man(b1-4)GlcNAc(b1-4)[Fuc(a1-6)]GlcNAc
Method in brief: (§1)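 The binding signal is a Z-score computed within each array. Data were drawn from 3228 arrays in the Consortium for Functional Glycomics database, restricted to those with a known protein sequence. Scores were averaged over arrays of the same protein sequence at different concentrations or buffers, and over linkers, and negative values can be taken as non-binding.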

[2] = target: GlcNAc(b1-3)Gal(b1-4)GlcNAc(b1-3)Gal(b1-4)GlcNAc(b1-3)Gal(b1-4)GlcNAc(b1-3)Gal(b1-4)GlcNAc(b1-2)Man(a1-3)[GlcNAc(b1-3)Gal(b1-4)GlcNAc(b1-3)Gal(b1-4)GlcNAc(b1-3)Gal(b1-4)GlcNAc(b1-3)Gal(b1-4)GlcNAc(b1-2)Man(a1-6)]Man(b1-4)GlcNAc(b1-4)GlcNAc
Method in brief: as §1

[3] = target: GlcNAc(b1-3)Gal(b1-4)GlcNAc(b1-3)Gal(b1-4)GlcNAc(b1-3)Gal(b1-4)GlcNAc(b1-3)Gal(b1-4)GlcNAc(b1-2)Man(a1-3)[GlcNAc(b1-3)Gal(b1-4)GlcNAc(b1-3)Gal(b1-4)GlcNAc(b1-3)Gal(b1-4)GlcNAc(b1-3)Gal(b1-4)GlcNAc(b1-2)Man(a1-6)]Man(b1-4)GlcNAc(b1-4)[Fuc(a1-6)]GlcNAc
Method in brief: as §1

[4] = target: GlcNAc(b1-3)Gal(b1-4)GlcNAc(b1-3)Gal(b1-4)GlcNAc(b1-3)Gal(b1-4)GlcNAc(b1-3)Gal(b1-4)GlcNAc(b1-2)[GlcNAc(b1-3)Gal(b1-4)GlcNAc(b1-3)Gal(b1-4)GlcNAc(b1-3)Gal(b1-4)GlcNAc(b1-3)Gal(b1-4)GlcNAc(b1-6)]Man(a1-6)[GlcNAc(b1-3)Gal(b1-4)GlcNAc(b1-3)Gal(b1-4)GlcNAc(b1-3)Gal(b1-4)GlcNAc(b1-3)Gal(b1-4)GlcNAc(b1-2)Man(a1-3)]Man(b1-4)GlcNAc(b1-4)[Fuc(a1-6)]GlcNAc
Method in brief: as §1

[5] = target: GlcNAc(b1-3)Gal(b1-4)GlcNAc(b1-3)Gal(b1-4)GlcNAc(b1-3)GalNAc
Method in brief: as §1

[6] = target: GlcNAc(b1-3)Gal(b1-4)GlcNAc(b1-3)GalNAc
Method in brief: as §1

[7] = target: GlcNAc(b1-3)Gal(b1-4)GlcNAc(b1-3)[GlcNAc(b1-3)Gal(b1-4)GlcNAc(b1-3)]GalNAc
Method in brief: as §1

[8] = target: GlcNAc(b1-3)Gal(b1-4)GlcNAc(b1-6)[Gal(b1-3)]GalNAc
Method in brief: as §1

[9] = target: GlcNAc(b1-3)Gal(b1-4)GlcNAc(b1-6)[GlcNAc(b1-3)Gal(b1-3)]GalNAc
Method in brief: as §1

[10] = target: GlcNAc(b1-3)Gal(b1-4)GlcNAc(b1-6)[GlcNAc(b1-3)]Gal(b1-4)GlcNAc
Method in brief: as §1

GlcNAc(b1-3)GalNAc = target: GlcNAc(b1-3)GalNAc
Method in brief: as §1

GlcNAc(b1-3)Man = target: GlcNAc(b1-3)Man
Method in brief: as §1

[11] = target: GlcNAc(b1-3)[GlcNAc(b1-4)][GlcNAc(b1-6)]GlcNAc
Method in brief: as §1

[12] = target: GlcNAc(b1-3)[GlcNAc(b1-6)]Gal(b1-4)GlcNAc
Method in brief: as §1

[13] = target: GlcNAc(b1-3)[GlcNAc(b1-6)]GalNAc
Method in brief: as §1

[14] = target: GlcNAc(b1-4)Gal(b1-4)GlcNAc
Method in brief: as §1

GlcNAc(b1-4)GlcNAc = target: GlcNAc(b1-4)GlcNAc
Method in brief: as §1

[15] = target: GlcNAc(b1-4)GlcNAc(b1-4)GlcNAc
Method in brief: as §1

[16] = target: GlcNAc(b1-4)GlcNAc(b1-4)GlcNAc(b1-4)GlcNAc(b1-4)GlcNAc
Method in brief: as §1

B1: HopZSSI-T (Helicobacter pylori), B5Z6D0 (protein)
chain: MGSSHHHHHHSSGLVPRGSHMENLYFQGEDNGFFISAGYQIGEAAQMVKNTGELKKLSDTYENLSNLLTNFNNLNQAVTNASSPSEINAAIDNLKANTQGLTGEKTNSPAYQAVYLALNAAVGLWNVIAYNVQCGPGNSSQQSVTFEGQPGHNSSSINCNLTGYNNGVSGPLSIDNFKQLNQAYQVLQQALKQGVPVLNNTNQKIEVKVTTQTNGQSSKETTTTTTTNDAQTLLQEASKMIDVLTTNCPWVNHNPGQNGGAPWGLIRQECVSGFATEFSAVTSMIKNAQEIVTQAQSLNANQNNQNAPQDFNPYTSADRAFAQNMLNHAQAQAKILELADQMKKDLNTIPSQFITNYLAACRIDGTTPSQGVTNNTWGAGCAYVEETITALNNSLAHFGTQAEQIKQSELLARTILDFRGSLSTLNSTYNSITTTASNTPNSPFLKNLISQSTNPNNPGGLQAVYQVNQSAYSQLLSATQELGHNPFRRIGLISSQT
With B1 the “glycan array binding signal (z-score)” value [1] was 1.12, the “glycan array binding signal (z-score)” value [2] was 0.076 and the “glycan array binding signal (z-score)” value [3] was 0.279. For the same binder, the “glycan array binding signal (z-score)” value [4] was 0.43, the “glycan array binding signal (z-score)” value [5] was 0.308 and the “glycan array binding signal (z-score)” value [6] was -0.169. For the same binder, the “glycan array binding signal (z-score)” value [7] was -0.515, the “glycan array binding signal (z-score)” value [8] was -0.607 and the “glycan array binding signal (z-score)” value [9] was 0.446. The “glycan array binding signal (z-score)” value [10] was -0.127, the “glycan array binding signal (z-score)” value (GlcNAc(b1-3)GalNAc) was -0.558 and the “glycan array binding signal (z-score)” value (GlcNAc(b1-3)Man) was 0.121. The “glycan array binding signal (z-score)” value [11] was -0.47, the “glycan array binding signal (z-score)” value [12] was -0.5 and the “glycan array binding signal (z-score)” value [13] was -0.108. For the same binder, the “glycan array binding signal (z-score)” value [14] was -0.41, the “glycan array binding signal (z-score)” value (GlcNAc(b1-4)GlcNAc) was -0.456 and the “glycan array binding signal (z-score)” value [15] was -0.451. For the same binder, the “glycan array binding signal (z-score)” value [16] was -0.8.
